Results deposited as PubChem BioAssay AID743454 (Peter MacCallum Cancer Centre, 2014).
The whole screen tested about 18,000 reagents; below is a part drawn at random. Of all reagents, 450 (2.5%) got an active call. 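Single biological run; no consistent viability z cut-off exists, so the class columns, not z-scores, define the calls.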 No sequences are given here.

- Assay: 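Search for knock-downs that restore vorinostat killing in resistant colon cancer cells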 (primary screen)
- Cells: human HCT116-VR colon cancer cells, selected for vorinostat resistance
- Reagents: siRNA pool against human genes, 40 nM siRNA pool
- Duration: vorinostat for 24 h, read-out about 72 h after transfection
- Conditions: vorinostat at 2.5 µM final
- Read-out: 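Two measures, CellTiter-Fluor viability and luminescent caspase 3/7 activity, each as fold change against same-plate mock wells, mean of duplicates, then screen-wide robust z-score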
- Direction: viability robust z-score: higher = more viable cells than screen typical; caspase robust z-score: higher = more caspase 3/7 activity than screen typical
- Active means: 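a knock-down is a hit when classed RV1 or RV2 for lowered viability, or CA1 or CA2 for caspase activation; those lethal without drug were dropped; hits were retested singly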

no.	target gene	viability hit class	caspase hit class	viability robust z-score	caspase robust z-score	call
1	LRP1 (LDL receptor related protein 1)	no change	no change	-1.82	0.46	inactive
2	ACBD6 (acyl-CoA binding domain containing 6)	no change	no change	-0.15	-0.82	inactive
3	ZNF426 (zinc finger protein 426)	no change	no change	0.42	-0.22	inactive
4	MPI (mannose phosphate isomerase)	no change	no change	-0.07	0.62	inactive
5	UNC5B (unc-5 netrin receptor B)	no change	no change	1.15	-0.22	inactive
6	TARS3 (threonyl-tRNA synthetase 3)	no change	no change	1.73	-0.34	inactive
7	VPS16 (VPS16 core subunit of CORVET and HOPS complexes)	no change	no change	-1.44	-0.12	inactive
8	ATAD3B (ATPase family AAA domain containing 3B)	no change	no change	-0.45	-0.25	inactive
9	NAALADL2 (N-acetylated alpha-linked acidic dipeptidase like 2)	no change	no change	2.04	-0.28	inactive
10	DHFR (dihydrofolate reductase)	no change	no change	-0.34	-0.6	inactive
11	GPX8 (glutathione peroxidase 8 (putative))	no change	no change	1.21	-0.74	inactive
12	NRBP2 (nuclear receptor binding protein 2)	no change	no change	1.64	4.19	inactive
13	NEU4 (neuraminidase 4)	no change	no change	-0.13	-1.21	inactive
14	LMO7 (LIM domain 7)	no change	no change	0.15	-0.46	inactive
15	TMC4 (transmembrane channel like 4)	no change	no change	0.72	1.15	inactive
16	USP17L2 (ubiquitin specific peptidase 17 like family member 2)	no change	no change	0.12	2.51	inactive
17	PACC1 (proton activated chloride channel 1)	no change	no change	0.1	1.03	inactive
18	PLAC1 (placenta associated 1)	no change	no change	1.17	-0.05	inactive
19	GYPE (glycophorin E (MNS blood group))	no change	no change	1.75	-0.7	inactive
20	MSTO1 (misato mitochondrial distribution and morphology regulator 1)	no change	no change	0.98	-0.23	inactive
21	PPIE (peptidylprolyl isomerase E)	no change	no change	0.62	0.4	inactive
22	GPER1 (G protein-coupled estrogen receptor 1)	RV2 (reduced viability)	CA2 (caspase activation)	-3.08	8.61	active
23	VAMP4 (vesicle associated membrane protein 4)	no change	no change	-0.2	2.42	inactive
24	GSTA2 (glutathione S-transferase alpha 2)	no change	no change	0.34	-0.32	inactive
25	ARHGAP33 (Rho GTPase activating protein 33)	no change	no change	-1.02	0.32	inactive
26	NTRK2 (neurotrophic receptor tyrosine kinase 2)	no change	no change	0.29	0.18	inactive
27	ZNRF4 (zinc and ring finger 4)	no change	no change	0.6	4.42	inactive
28	TMX4 (thioredoxin related transmembrane protein 4)	no change	no change	0.7	-0.06	inactive
29	ZBTB44 (zinc finger and BTB domain containing 44)	no change	no change	2.16	0.06	inactive
30	HACD4 (3-hydroxyacyl-CoA dehydratase 4)	no change	no change	0.56	0.87	inactive
31	GALK2 (galactokinase 2)	no change	no change	-0.32	-0.04	inactive
32	BMP8B (bone morphogenetic protein 8b)	no change	no change	-0.06	-0.5	inactive
33	GSTZ1 (glutathione S-transferase zeta 1)	no change	no change	0.16	-0.49	inactive
34	GDPD1 (glycerophosphodiester phosphodiesterase domain containing 1)	no change	no change	0.21	0.38	inactive
35	SLCO4C1	no change	no change	-0.72	1.65	inactive
36	BAP1 (BRCA1 associated deubiquitinase 1)	no change	no change	0.18	2.58	inactive
37	OR7A10 (olfactory receptor family 7 subfamily A member 10)	no change	no change	0.46	-0.8	inactive
38	APOL5 (apolipoprotein L5)	no change	CA1 (caspase activation)	-0.53	5.73	active

Continued, starting with the last 7 of the part before.
no.	target gene	viability hit class	caspase hit class	viability robust z-score	caspase robust z-score	call
32	BMP8B (bone morphogenetic protein 8b)	no change	no change	-0.06	-0.5	inactive
33	GSTZ1 (glutathione S-transferase zeta 1)	no change	no change	0.16	-0.49	inactive
34	GDPD1 (glycerophosphodiester phosphodiesterase domain containing 1)	no change	no change	0.21	0.38	inactive
35	SLCO4C1	no change	no change	-0.72	1.65	inactive
36	BAP1 (BRCA1 associated deubiquitinase 1)	no change	no change	0.18	2.58	inactive
37	OR7A10 (olfactory receptor family 7 subfamily A member 10)	no change	no change	0.46	-0.8	inactive
38	APOL5 (apolipoprotein L5)	no change	CA1 (caspase activation)	-0.53	5.73	active
39	DYNC1LI1 (dynein cytoplasmic 1 light intermediate chain 1)	no change	no change	1.08	-0.56	inactive
40	SMOC2 (SPARC related modular calcium binding 2)	no change	no change	-0.76	0.3	inactive
41	MARCHF6 (membrane associated ring-CH-type finger 6)	no change	no change	-2.06	0.98	inactive
42	OR2B3 (olfactory receptor family 2 subfamily B member 3)	no change	no change	0.43	-0.24	inactive
43	LRRK1 (leucine rich repeat kinase 1)	no change	no change	1.17	-0.11	inactive
44	PAN2 (poly(A) specific ribonuclease subunit PAN2)	no change	no change	-0.66	2.1	inactive
45	BGLAP (bone gamma-carboxyglutamate protein)	no change	no change	-0.84	0.92	inactive
46	AFG2B (AAA ATPase AFG2B)	no change	no change	1.45	-0.7	inactive
47	EFNA3 (ephrin A3)	no change	no change	0.03	-0.56	inactive
48	DUX1 (double homeobox 1)	no change	no change	0.68	-0.72	inactive
49	TNFRSF14 (TNF receptor superfamily member 14)	no change	no change	-0.71	4.09	inactive
50	HOXC9 (homeobox C9)	no change	no change	0.28	2.25	inactive
51	DCTN1 (dynactin subunit 1)	no change	no change	0.64	-0.53	inactive
52	CR2 (complement C3d receptor 2)	no change	no change	2.21	-0.3	inactive
53	DGKK (diacylglycerol kinase kappa)	no change	no change	1.19	-0.46	inactive
54	NLRP1 (NLR family pyrin domain containing 1)	no change	no change	0.12	-0.94	inactive
55	ITIH5 (inter-alpha-trypsin inhibitor heavy chain 5)	no change	no change	1.41	-0.66	inactive
56	GPR4 (G protein-coupled receptor 4)	no change	no change	0.04	-0.32	inactive
57	KLHDC9 (kelch domain containing 9)	no change	no change	2.34	0.54	inactive
